Test results: patent publication US20160024062A1, “ISOXAZOLINE DERIVATIVES FOR CONTROLLING INVERTEBRATE PESTS” (NOVARTIS TIERGESUNDHEIT AG, priority 2011, published 2016)
Some of these results come from one statement about several compounds together.

System: Rhipicephalus sanquineus (dog tick)
Assay: Activity in vitro against Rhipicephalus sanquineus (dog tick), adult tick contact test
Conditions: 640 ppm; adult ticks, 10 minutes contact, 7 days at 28° C. and 80% relative humidity

For `Cc1sc(C2=NOC(c3cc(Cl)cc(Cl)c3)(C(F)(F)F)C2)cc1C(=O)NCC(=O)NCC#N` (stereo not shown) [Compound 1.32, N-(2-((cyanomethyl)amino)-2-oxoethyl)-5-(5-(3,5-dichlorophenyl)-5-(trifluoromethyl)-4,5-dihydroisoxazol-3-yl)-2-methylthiophene-3-carboxamide], the “efficacy (EC80)” value was “more than 80%”.
